The list shows a part of the results.
Experiments:
Experiment in all cases: log2 fold change, soluble protein after heating vs DMSO (PISA); higher = thermal stabilisation; K562 lysate, 10 uM; active = over 0.2 and 3.5 SD of the protein, either way, in both replicates (recomputed)
vemurafenib = compound: CCCS(=O)(=O)Nc1ccc(F)c(C(=O)c2c[nH]c3ncc(-c4ccc(Cl)cc4)cc23)c1F [vemurafenib]
Summary of the method: (§1)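 Following dounce homogenisation of K562 pellets in PBS pH 7.4 with 1 mM MgCl2, crude extract at 1 mg/mL protein was incubated for 30 min with 10 μM compound. Aliquots were then heated for 3 min over 48°C-58°C and pooled, NP-40 was added to 0.5% at 4°C, and soluble protein was recovered as the supernatant at 21,000xg for 90 min. Channel-sum-equalised TMTpro 16plex LC-MS/MS quantified this protein. Each value, from duplicates, is a log-two fold change in thermal stability relative to solvent controls.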

Sequences of proteins named here, by UniProt entry; tags and fusion partners are left off. A change or cut given only in a name is not applied to a line headed by its entry.
UniProt Q9BSK0: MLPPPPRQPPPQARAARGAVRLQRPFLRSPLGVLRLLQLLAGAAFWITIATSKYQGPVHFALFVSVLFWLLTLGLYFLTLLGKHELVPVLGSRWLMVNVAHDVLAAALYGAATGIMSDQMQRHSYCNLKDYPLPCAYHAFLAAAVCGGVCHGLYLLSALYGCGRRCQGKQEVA
UniProt Q6P0Q8: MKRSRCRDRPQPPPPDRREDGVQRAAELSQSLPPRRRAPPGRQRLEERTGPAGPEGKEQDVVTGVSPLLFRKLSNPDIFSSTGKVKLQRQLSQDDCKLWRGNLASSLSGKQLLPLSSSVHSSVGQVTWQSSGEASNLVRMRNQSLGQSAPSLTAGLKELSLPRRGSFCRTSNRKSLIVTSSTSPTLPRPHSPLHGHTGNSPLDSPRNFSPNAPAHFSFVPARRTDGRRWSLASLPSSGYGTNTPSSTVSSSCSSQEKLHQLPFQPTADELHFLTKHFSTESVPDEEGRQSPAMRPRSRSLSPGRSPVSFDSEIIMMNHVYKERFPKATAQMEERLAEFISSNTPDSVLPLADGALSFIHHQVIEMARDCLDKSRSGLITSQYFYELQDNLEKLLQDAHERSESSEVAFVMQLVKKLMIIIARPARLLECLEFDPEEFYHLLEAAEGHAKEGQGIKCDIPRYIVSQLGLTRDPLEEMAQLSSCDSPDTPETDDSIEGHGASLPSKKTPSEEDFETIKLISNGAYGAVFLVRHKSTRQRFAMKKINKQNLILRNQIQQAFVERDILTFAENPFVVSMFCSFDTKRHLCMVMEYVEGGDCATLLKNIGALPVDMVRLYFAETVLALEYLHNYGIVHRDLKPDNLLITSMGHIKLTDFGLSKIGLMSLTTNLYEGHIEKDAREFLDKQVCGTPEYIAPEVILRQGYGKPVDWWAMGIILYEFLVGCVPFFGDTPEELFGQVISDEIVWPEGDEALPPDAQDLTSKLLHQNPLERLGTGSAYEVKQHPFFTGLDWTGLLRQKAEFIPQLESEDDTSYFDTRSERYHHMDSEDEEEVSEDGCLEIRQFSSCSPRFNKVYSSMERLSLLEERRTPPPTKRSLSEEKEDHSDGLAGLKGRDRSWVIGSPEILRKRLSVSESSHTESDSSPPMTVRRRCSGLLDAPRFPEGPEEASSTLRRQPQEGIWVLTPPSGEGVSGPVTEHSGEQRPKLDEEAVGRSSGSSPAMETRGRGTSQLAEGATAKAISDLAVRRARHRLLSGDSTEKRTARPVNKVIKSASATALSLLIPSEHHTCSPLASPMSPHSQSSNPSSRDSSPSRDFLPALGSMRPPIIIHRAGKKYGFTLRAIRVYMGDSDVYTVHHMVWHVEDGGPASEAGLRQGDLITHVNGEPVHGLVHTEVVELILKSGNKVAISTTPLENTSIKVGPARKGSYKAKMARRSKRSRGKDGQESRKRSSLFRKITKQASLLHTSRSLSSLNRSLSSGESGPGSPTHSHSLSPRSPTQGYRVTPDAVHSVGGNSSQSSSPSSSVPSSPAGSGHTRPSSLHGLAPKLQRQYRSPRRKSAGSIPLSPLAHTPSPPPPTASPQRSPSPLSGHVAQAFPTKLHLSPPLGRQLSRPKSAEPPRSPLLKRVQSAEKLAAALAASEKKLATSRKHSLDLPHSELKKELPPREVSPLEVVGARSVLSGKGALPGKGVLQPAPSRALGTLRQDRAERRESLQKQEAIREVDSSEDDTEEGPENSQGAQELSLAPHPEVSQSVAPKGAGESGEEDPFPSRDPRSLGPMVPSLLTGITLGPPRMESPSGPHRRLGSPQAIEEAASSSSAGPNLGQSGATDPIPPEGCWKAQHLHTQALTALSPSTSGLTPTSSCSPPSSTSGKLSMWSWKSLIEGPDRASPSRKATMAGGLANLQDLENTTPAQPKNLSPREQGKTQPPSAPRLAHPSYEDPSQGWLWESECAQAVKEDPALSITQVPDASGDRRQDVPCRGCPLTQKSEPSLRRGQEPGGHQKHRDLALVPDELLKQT
UniProt P43360, whole entry, looked up: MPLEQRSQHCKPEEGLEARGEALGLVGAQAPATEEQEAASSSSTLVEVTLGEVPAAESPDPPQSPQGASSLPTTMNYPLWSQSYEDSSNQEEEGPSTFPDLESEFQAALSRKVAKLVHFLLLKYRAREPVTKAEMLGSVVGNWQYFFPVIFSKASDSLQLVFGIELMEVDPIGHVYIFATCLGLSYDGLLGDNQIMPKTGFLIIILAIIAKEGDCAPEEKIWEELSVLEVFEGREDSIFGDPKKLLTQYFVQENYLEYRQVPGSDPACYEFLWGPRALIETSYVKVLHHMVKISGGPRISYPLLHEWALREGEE
UniProt Q8N2S1: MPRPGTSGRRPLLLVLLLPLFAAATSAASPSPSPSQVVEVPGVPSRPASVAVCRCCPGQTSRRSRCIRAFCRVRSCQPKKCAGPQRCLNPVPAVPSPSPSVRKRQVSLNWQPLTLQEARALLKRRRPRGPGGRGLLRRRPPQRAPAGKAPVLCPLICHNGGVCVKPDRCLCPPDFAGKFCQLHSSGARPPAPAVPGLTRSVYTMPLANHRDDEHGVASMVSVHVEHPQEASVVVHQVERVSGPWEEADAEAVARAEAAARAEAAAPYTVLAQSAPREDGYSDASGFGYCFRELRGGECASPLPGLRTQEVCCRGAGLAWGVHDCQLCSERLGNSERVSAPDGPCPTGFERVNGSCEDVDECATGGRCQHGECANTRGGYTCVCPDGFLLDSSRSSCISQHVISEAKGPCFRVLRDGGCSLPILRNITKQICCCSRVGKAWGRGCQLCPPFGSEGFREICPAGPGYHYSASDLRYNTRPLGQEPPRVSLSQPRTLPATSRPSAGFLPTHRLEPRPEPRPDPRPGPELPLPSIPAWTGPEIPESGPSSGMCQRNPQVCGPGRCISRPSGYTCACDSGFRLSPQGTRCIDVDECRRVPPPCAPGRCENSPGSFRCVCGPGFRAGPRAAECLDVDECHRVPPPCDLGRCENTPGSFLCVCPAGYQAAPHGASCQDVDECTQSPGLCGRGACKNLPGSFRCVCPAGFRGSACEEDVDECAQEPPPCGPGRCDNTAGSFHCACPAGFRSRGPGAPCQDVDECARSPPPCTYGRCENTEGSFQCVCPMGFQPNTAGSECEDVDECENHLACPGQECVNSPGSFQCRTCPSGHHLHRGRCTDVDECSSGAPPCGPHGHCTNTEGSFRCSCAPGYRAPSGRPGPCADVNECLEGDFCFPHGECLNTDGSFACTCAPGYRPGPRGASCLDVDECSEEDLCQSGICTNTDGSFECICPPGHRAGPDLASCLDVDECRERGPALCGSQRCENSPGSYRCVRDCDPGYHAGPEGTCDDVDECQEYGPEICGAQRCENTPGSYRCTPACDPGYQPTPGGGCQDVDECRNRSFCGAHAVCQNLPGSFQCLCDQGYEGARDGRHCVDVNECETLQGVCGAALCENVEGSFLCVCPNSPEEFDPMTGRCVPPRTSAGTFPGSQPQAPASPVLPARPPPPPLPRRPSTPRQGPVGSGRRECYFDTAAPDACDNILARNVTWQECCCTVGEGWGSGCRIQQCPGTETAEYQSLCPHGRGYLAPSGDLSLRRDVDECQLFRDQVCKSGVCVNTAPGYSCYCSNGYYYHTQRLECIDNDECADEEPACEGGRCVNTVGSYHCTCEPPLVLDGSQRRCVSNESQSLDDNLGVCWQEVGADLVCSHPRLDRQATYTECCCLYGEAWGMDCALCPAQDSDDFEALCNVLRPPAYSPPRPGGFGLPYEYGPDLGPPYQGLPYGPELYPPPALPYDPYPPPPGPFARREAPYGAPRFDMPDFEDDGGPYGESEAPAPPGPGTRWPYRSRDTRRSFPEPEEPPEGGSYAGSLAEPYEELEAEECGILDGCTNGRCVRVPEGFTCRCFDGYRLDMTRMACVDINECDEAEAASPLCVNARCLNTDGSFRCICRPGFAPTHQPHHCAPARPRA
UniProt P43356, whole entry, looked up: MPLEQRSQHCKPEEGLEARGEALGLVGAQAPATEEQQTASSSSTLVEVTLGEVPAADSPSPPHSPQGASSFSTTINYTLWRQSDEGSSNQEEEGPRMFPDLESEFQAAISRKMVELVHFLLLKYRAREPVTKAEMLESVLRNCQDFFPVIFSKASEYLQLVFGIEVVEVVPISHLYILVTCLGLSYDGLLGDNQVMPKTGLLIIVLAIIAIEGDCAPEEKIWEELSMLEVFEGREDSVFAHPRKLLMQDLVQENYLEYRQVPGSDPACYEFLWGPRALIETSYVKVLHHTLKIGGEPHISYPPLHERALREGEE
UniProt Q96JG8: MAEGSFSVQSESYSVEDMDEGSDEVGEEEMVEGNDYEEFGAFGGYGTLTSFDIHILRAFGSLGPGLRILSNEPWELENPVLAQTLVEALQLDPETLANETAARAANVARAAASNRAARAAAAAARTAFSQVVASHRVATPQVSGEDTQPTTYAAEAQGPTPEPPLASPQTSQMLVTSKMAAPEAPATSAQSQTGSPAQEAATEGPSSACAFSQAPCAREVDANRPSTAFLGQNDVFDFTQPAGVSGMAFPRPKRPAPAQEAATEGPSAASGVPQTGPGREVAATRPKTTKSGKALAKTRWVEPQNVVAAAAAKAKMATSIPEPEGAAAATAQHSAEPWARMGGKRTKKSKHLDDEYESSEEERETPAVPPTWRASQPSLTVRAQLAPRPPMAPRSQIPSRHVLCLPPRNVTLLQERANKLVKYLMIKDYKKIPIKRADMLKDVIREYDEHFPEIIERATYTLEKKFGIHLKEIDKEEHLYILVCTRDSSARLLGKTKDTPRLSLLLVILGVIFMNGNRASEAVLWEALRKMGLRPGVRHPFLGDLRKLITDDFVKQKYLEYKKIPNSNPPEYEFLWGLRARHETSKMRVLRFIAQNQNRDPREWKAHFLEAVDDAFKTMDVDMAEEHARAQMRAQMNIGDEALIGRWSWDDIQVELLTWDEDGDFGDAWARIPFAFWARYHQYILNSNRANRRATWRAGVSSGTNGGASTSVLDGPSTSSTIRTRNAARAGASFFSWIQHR
UniProt Q8IVH8: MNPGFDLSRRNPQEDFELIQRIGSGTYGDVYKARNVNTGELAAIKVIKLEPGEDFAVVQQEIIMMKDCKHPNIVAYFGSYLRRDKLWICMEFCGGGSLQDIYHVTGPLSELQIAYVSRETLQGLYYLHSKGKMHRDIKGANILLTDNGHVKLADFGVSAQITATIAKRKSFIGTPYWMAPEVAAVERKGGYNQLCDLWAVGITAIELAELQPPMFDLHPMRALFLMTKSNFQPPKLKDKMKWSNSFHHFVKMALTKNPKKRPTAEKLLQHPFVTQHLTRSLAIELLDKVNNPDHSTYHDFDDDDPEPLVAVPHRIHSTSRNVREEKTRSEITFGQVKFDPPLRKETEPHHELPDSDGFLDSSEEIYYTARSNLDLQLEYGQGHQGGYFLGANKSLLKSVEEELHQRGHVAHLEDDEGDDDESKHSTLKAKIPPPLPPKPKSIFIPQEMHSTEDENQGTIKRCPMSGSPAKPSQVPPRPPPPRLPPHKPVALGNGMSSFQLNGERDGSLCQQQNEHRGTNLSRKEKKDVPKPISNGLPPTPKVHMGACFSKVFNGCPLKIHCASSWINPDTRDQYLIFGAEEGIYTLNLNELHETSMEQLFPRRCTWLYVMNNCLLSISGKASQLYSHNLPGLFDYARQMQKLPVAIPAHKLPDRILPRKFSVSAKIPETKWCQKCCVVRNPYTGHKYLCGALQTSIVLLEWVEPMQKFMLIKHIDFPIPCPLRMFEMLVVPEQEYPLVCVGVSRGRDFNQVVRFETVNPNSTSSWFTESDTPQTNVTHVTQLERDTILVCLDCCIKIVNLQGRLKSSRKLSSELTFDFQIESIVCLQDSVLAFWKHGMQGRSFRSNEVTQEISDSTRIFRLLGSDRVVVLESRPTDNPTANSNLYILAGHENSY
UniProt Q9NQG1: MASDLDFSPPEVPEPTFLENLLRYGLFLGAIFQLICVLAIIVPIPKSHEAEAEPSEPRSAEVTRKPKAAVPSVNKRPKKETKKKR
UniProt Q9HAY2: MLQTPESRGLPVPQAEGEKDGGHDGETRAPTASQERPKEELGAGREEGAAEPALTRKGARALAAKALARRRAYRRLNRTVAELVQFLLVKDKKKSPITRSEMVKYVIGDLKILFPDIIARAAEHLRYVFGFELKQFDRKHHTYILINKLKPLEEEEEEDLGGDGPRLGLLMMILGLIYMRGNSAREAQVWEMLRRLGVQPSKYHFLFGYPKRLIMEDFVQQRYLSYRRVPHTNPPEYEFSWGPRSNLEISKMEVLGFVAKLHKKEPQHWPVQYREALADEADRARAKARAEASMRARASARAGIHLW
UniProt Q86UD3: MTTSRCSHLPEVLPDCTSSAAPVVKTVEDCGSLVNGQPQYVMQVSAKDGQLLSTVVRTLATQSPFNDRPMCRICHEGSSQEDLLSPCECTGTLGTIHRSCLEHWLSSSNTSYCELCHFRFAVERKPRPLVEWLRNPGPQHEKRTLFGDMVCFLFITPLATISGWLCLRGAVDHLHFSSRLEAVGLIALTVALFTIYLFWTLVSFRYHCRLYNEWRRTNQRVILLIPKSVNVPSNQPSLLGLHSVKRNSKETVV

barasertib = compound: CCN(CCCOc1ccc2c(Nc3cc(CC(=O)Nc4cccc(F)c4)[nH]n3)ncnc2c1)CCOP(=O)(O)O [barasertib]
Summary of the method: as §1

[1] = compound: CCn1cc(-c2ccnc3[nH]c(-c4cccc(CN(C)C)c4)cc23)c(-c2ccc(NC(=O)N(C)C)cc2)n1
Summary of the method: as §1

[2] = compound: CN1CCC(CNc2ccc3ncc(-c4cccc(OC(F)(F)F)c4)n3n2)CC1
Summary of the method: as §1

saracatinib = compound: CN1CCN(CCOc2cc(OC3CCOCC3)c3c(Nc4c(Cl)ccc5c4OCO5)ncnc3c2)CC1 [saracatinib]
Summary of the method: as §1

alvocidib = compound: CN1CC[C@H](c2c(O)cc(O)c3c(=O)cc(-c4ccccc4Cl)oc23)[C@H](O)C1 [alvocidib]
Summary of the method: as §1

[3] = compound: CNC(=O)C1=CC=CC=C1NC2=NC(=NC=C2Cl)NC3=C(C=C(C=C3)N4CCOCC4)OC
Summary of the method: as §1

defactinib = compound: CNC(=O)c1ccc(Nc2ncc(C(F)(F)F)c(NCc3nccnc3N(C)S(C)(=O)=O)n2)cc1 [defactinib]
Summary of the method: as §1

[4] = compound: CNc1nc(-c2ccc3c(N)n[nH]c3c2)cc(N2C[C@@H](C(=O)NC3CCCCC3)CC[C@H]2C)n1
Summary of the method: as §1

[5] = compound: CC[C@@H]1C(=O)N(C)c2cnc(Nc3ccc(C(=O)NC4CCN(C)CC4)cc3OC)nc2N1C1CCCC1
Summary of the method: as §1

[6] = compound: CCn1c(C(=O)N(C2CC2)C2CC2)cc2c3c(ncn3C)c(Nc3cc(C)n(C)n3)nc21
Summary of the method: as §1

sotrastaurin = compound: CN1CCN(c2nc(C3=C(c4c[nH]c5ccccc45)C(=O)NC3=O)c3ccccc3n2)CC1 [sotrastaurin]
Summary of the method: as §1

Tubastatin A = compound: CN1CCc2c(c3ccccc3n2Cc2ccc(C(=O)NO)cc2)C1 [Tubastatin A]
Summary of the method: as §1

encorafenib = compound: COC(=O)N[C@@H](C)CNc1nccc(-c2cn(C(C)C)nc2-c2cc(Cl)cc(NS(C)(=O)=O)c2F)n1 [encorafenib]
Summary of the method: as §1

[7] = compound: COC(=O)[C@H](CCSC)NC(=O)C1=C(C=C(C=C1)NC[C@H](CS)N)C2=CC=CC=C2
Summary of the method: as §1

alisertib = compound: COc1cc(Nc2ncc3c(n2)-c2ccc(Cl)cc2C(c2c(F)cccc2OC)=NC3)ccc1C(=O)O [alisertib]
Summary of the method: as §1

gefitinib = compound: COc1cc2ncnc(Nc3ccc(F)c(Cl)c3)c2cc1OCCCN1CCOCC1 [gefitinib]
Summary of the method: as §1

[8] = compound: CCCS(=O)(=O)Nc1ccc(F)c(C(=O)c2c[nH]c3ncc(Cl)cc23)c1F
Summary of the method: as §1

volasertib = compound: CC[C@@H]1C(=O)N(C)c2cnc(Nc3ccc(C(=O)N[C@H]4CC[C@H](N5CCN(CC6CC6)CC5)CC4)cc3OC)nc2N1C(C)C [volasertib]
Summary of the method: as §1

[9] = compound: COc1cc2nc(-c3cc(F)ccc3O)nc(N[C@@H]3CNC[C@H]3C(C)(C)O)c2cc1OC
Summary of the method: as §1

Target | log2 fold change (vemurafenib) | log2 fold change (barasertib) | log2 fold change [1] | log2 fold change [2] | log2 fold change (saracatinib) | log2 fold change (alvocidib) | log2 fold change [3] | log2 fold change (defactinib) | log2 fold change [4] | log2 fold change [5] | log2 fold change [6] | log2 fold change (sotrastaurin) | log2 fold change (Tubastatin A) | log2 fold change (encorafenib) | log2 fold change [7] | log2 fold change (alisertib) | log2 fold change (gefitinib) | log2 fold change [8] | log2 fold change (volasertib) | log2 fold change [9]
MARVELD1 (UniProt Q9BSK0) | inactive: -0.074 | inactive: 0.063 | inactive: -0.026 | inactive: 0.277 | inactive: 0.131 | inactive: -0.017 | inactive: -0.141 | inactive: 0.269 | inactive: 0.212 | – | – | – | – | – | – | – | – | – | – | –
LTO1 (UniProt Q8WV07) | inactive: 0.019 | inactive: -0.108 | inactive: 0.086 | inactive: -0.064 | inactive: 0.019 | inactive: 0.039 | inactive: -0.073 | inactive: 0.009 | inactive: 0.011 | inactive: 0.047 | inactive: -0.011 | inactive: -0.016 | inactive: 0.037 | inactive: 0.058 | inactive: 0.067 | inactive: -0.202 | inactive: 0.238 | – | – | –
MAML1 (UniProt Q92585) | inactive: 0.21 | inactive: 0.089 | inactive: 0.145 | inactive: -0.013 | inactive: -0.013 | inactive: 0.034 | inactive: 0.141 | inactive: -0.126 | inactive: 0.017 | inactive: 0.048 | inactive: 0.055 | inactive: 0.029 | inactive: 0.071 | inactive: -0.007 | inactive: -0.003 | inactive: 0.401 | inactive: 0.12 | – | – | –
LYPLA1, A0A087X1K9 | inactive: -0.078 | – | inactive: -0.342 | inactive: 0.133 | – | inactive: -0.113 | – | inactive: -0.171 | – | inactive: -0.042 | inactive: -0.051 | inactive: 0.044 | inactive: 0.154 | inactive: 0.193 | inactive: -0.333 | – | – | inactive: 0.131 | inactive: 0.044 | inactive: -0.244
MAST2 (UniProt Q6P0Q8) | inactive: 0.134 | inactive: 0.105 | inactive: 0.102 | inactive: 0.06 | inactive: 0.056 | inactive: -0.096 | inactive: 0.219 | inactive: -0.009 | inactive: -0.009 | inactive: 0.068 | inactive: -0.127 | inactive: -0.024 | inactive: -0.06 | inactive: 0.114 | inactive: 0.078 | – | – | inactive: -0.062 | inactive: 0.045 | inactive: -0.002
MAP3K3 isoform 2 (UniProt Q99759) | inactive: -0.205 | – | – | – | inactive: 0.072 | – | inactive: 0.134 | inactive: 0.128 | inactive: -0.06 | inactive: 0.3 | inactive: -0.017 | inactive: -0.092 | inactive: -0.069 | inactive: -0.237 | inactive: -0.202 | inactive: 0.263 | inactive: 0.164 | – | – | –
MARCHF6 (UniProt O60337) | inactive: 0.043 | inactive: 0.233 | inactive: -0.023 | inactive: 0.013 | inactive: -0.13 | inactive: 0.07 | inactive: -0.039 | inactive: 0.046 | inactive: 0.084 | inactive: 0.038 | – | inactive: 0.034 | – | inactive: 0.08 | inactive: -0.05 | inactive: -0.321 | inactive: 0.019 | inactive: 0.052 | inactive: 0.078 | inactive: 0.008
LZTS2 (UniProt Q9BRK4) | inactive: 0.253 | inactive: 0.081 | – | – | inactive: 0.081 | – | inactive: 0.073 | inactive: -0.224 | inactive: 0.082 | inactive: 0.156 | – | inactive: 0.026 | – | inactive: -0.253 | inactive: -0.158 | inactive: 0.008 | inactive: 0.127 | inactive: 0.054 | inactive: 0.08 | inactive: -0.063
MAP3K20 isoform 2 (UniProt Q9NYL2) | inactive: 0.082 | inactive: -0.026 | inactive: 0.064 | inactive: -0.065 | inactive: 0.097 | inactive: 0.048 | inactive: 0.011 | inactive: 0.109 | inactive: -0.095 | inactive: 0.216 | inactive: -0.002 | inactive: -0.064 | inactive: -0.012 | inactive: 0.076 | inactive: -0.114 | – | inactive: -0.073 | inactive: 0.074 | inactive: -0.133 | inactive: -0.016
MAPK12 (UniProt P53778) | inactive: 0.084 | inactive: -0.033 | active: 0.974 | inactive: -0.169 | inactive: 0.023 | – | inactive: 0.025 | inactive: -0.077 | inactive: 0.054 | inactive: 0.105 | inactive: -0.029 | – | inactive: 0.022 | inactive: -0.001 | inactive: 0.035 | inactive: -0.114 | inactive: -0.057 | – | – | –
MAPK6 (UniProt Q16659) | inactive: 0.006 | inactive: 0.047 | active: 0.221 | inactive: -0.02 | inactive: -0.014 | inactive: 0.133 | inactive: 0.115 | inactive: 0.049 | inactive: -0.023 | inactive: 0.034 | inactive: -0.029 | inactive: 0.014 | inactive: -0.086 | inactive: -0.037 | inactive: -0.092 | inactive: -0.001 | inactive: 0.113 | inactive: 0.001 | inactive: -0.001 | inactive: 0.072
MAP4K2 (UniProt Q12851) | inactive: 0.198 | inactive: 0.009 | inactive: -0.317 | inactive: 0.105 | inactive: 0.005 | inactive: 0.111 | inactive: -0.02 | inactive: 0.086 | inactive: 0.055 | inactive: -0.009 | inactive: -0.023 | inactive: 0.053 | inactive: -0.189 | inactive: -0.183 | inactive: -0.234 | – | – | inactive: -0.038 | inactive: -0.035 | inactive: 0.219
MARCHF7 (UniProt Q9H992) | – | – | – | – | inactive: 0.02 | – | – | – | inactive: -0.023 | – | – | – | – | – | – | – | – | – | – | –
MAGEA6 (UniProt P43360) | inactive: 0.003 | – | – | – | – | – | inactive: -0.023 | inactive: 0.058 | – | inactive: 0.031 | – | inactive: -0.117 | – | inactive: 0.042 | inactive: -0.071 | – | – | – | – | –
LTBP4 isoform 2 (UniProt Q8N2S1) | – | – | – | – | – | – | – | – | – | – | – | inactive: -0.021 | – | – | – | – | – | – | – | –
MAPKAP1 (UniProt Q9BPZ7) | – | – | – | – | inactive: 0.057 | – | inactive: -0.119 | – | inactive: 0.081 | inactive: 0.031 | inactive: 0.005 | inactive: -0.045 | inactive: -0.125 | inactive: -0.051 | inactive: 0.036 | inactive: -0.094 | inactive: 0.07 | – | – | –
MAGEA2 (UniProt P43356) | – | – | – | – | inactive: -0.044 | – | – | – | inactive: -0.136 | inactive: 0.1 | – | – | – | inactive: -0.28 | inactive: 0.039 | – | – | – | – | –
MAP4K4 isoform 6 (UniProt O95819) | – | inactive: 0.06 | – | – | inactive: 0.006 | – | inactive: -0.067 | – | inactive: -0.016 | inactive: 0.06 | inactive: -0.025 | – | inactive: 0.024 | inactive: 0.207 | inactive: -0.034 | – | – | inactive: 0.073 | inactive: -0.04 | inactive: -0.058
MAGED4 isoform 4 (UniProt Q96JG8) | – | – | inactive: -0.258 | inactive: 0.369 | – | inactive: -0.077 | – | – | – | – | – | – | – | – | – | – | – | – | – | –
MAP4K3 (UniProt Q8IVH8) | – | inactive: -0.03 | – | – | inactive: -0.095 | – | – | – | inactive: -0.361 | – | inactive: 0.238 | inactive: -0.079 | inactive: -0.136 | – | – | – | – | – | – | –
MANBAL (UniProt Q9NQG1) | – | inactive: 0.013 | inactive: 0.01 | inactive: 0.008 | – | inactive: -0.012 | inactive: 0.046 | – | – | inactive: 0.036 | inactive: -0.014 | – | inactive: 0.013 | inactive: 0.035 | inactive: -0.18 | – | – | inactive: -0.03 | inactive: -0.005 | inactive: 0.065
MAGI1 (UniProt H7C4S7) | – | – | – | – | inactive: 0.074 | – | – | – | inactive: -0.083 | – | – | – | – | – | – | – | – | – | – | –
MAGEF1 (UniProt Q9HAY2) | – | – | – | – | inactive: 0.067 | – | inactive: 0.045 | – | inactive: 0.904 | – | inactive: -0.244 | – | inactive: 0.2 | – | – | – | – | inactive: 0.07 | inactive: -0.044 | inactive: 0.161
MARCHF3 (UniProt Q86UD3) | inactive: 0.032 | – | inactive: 0.271 | inactive: -0.071 | – | inactive: -0.121 | – | inactive: 0.032 | – | inactive: 0.002 | – | – | – | inactive: -0.02 | inactive: -0.126 | – | – | – | – | –

Part of the list above, as a markdown table.

| Target | log2 fold change (vemurafenib) | log2 fold change (barasertib) | log2 fold change [1] | log2 fold change [2] | log2 fold change (saracatinib) | log2 fold change (alvocidib) | log2 fold change [3] | log2 fold change (defactinib) | log2 fold change [4] | log2 fold change [5] | log2 fold change [6] | log2 fold change (sotrastaurin) | log2 fold change (Tubastatin A) | log2 fold change (encorafenib) | log2 fold change [7] | log2 fold change (alisertib) | log2 fold change (gefitinib) | log2 fold change [8] | log2 fold change (volasertib) | log2 fold change [9] |
| --- | --- | --- | --- | --- | --- | --- | --- | --- | --- | --- | --- | --- | --- | --- | --- | --- | --- | --- | --- | --- |
| MARCHF7 (UniProt Q9H992) | – | – | – | – | inactive: 0.02 | – | – | – | inactive: -0.023 | – | – | – | – | – | – | – | – | – | – | – |
| MAGEA2 (UniProt P43356) | – | – | – | – | inactive: -0.044 | – | – | – | inactive: -0.136 | inactive: 0.1 | – | – | – | inactive: -0.28 | inactive: 0.039 | – | – | – | – | – |
